# Results reported in PubChem BioAssay AID1439 (NMMLSC, 2008).
# Amino acid sequences for entries named in this document (tags omitted).
# UniProt P09471, whole entry, looked up: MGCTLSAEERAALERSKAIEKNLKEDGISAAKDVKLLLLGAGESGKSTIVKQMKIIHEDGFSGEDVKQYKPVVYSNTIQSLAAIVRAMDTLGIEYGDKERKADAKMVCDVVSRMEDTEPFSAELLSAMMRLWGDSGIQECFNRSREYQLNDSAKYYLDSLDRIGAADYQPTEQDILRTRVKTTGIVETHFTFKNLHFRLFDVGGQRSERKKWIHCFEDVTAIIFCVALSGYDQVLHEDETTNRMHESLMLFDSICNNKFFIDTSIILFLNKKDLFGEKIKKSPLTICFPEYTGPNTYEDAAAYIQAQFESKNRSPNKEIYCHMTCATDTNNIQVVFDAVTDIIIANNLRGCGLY
# Several values for one entry are separate records, joined by “and”; a condition that tells them apart may be missing. Equal values may be shown once. The whole screen tested about 220,000 compounds, of which about 770 (0.35%) were called active. This list was built around the results that the source calls inconclusive (neither active nor inactive); the mix of calls is not that of the screen. Cut-off read from the data, not from the text of the source: active = binding response below about 49% or above about 150%; inconclusive = no clear call, values can overlap the other calls; inactive = in between.
# Molecular target: Guanine nucleotide-binding protein G(o) subunit alpha (Homo sapiens) (UniProt P09471)
# Experiment: RGS7-Galphao binding modulators, primary screen, biochemical, multiplexed bead flow cytometry (AID 1439);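 note: fluorescent Galphao held in activated GDP-AlF4 state binding bead-coupled RGS7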
# Conditions: at 10 µM, actives lie on both sides
row,SMILES,binding response (% of control)
1,Cc1ccc(C(=O)Nc2cccc(C(F)(F)F)c2)cc1NC(=O)c1csc(-c2ccncc2)n1,inconclusive: 91.2%
2,CC(C)CNC(=O)COc1ncnc2sccc12,inconclusive: 122%
3,O=C1N=C2N(CCN3CCCCC3)c3ccccc3N2/C1=C\c1ccc([N+](=O)[O-])o1,inactive: 98.2%
4,Nc1cccc(Oc2ccc3c(c2)C(=O)N(CC2CCCO2)C3=O)c1 (stereo not given),inconclusive: -3.92%
5,CCC(Oc1ccccc1)C(=O)N1CC(C)CC(C)C1 (stereo not given),inactive: 99.2%
6,Cc1ccc(-c2noc(N=O)c2NO)cc1,inconclusive: 140%
7,COc1cccc(N/C=C/C(=O)c2ccc(Cl)cc2)c1,inactive: 94.6%
8,c1ccc(-c2nnc(-c3ccccn3)c(-c3ccccn3)n2)nc1,inconclusive: 130%
9,COc1ccc(N(Cc2cc3cccc(C)c3[nH]c2=O)C(=O)C2CCCO2)cc1 (stereo not given),inconclusive: 100%
10,CSc1c(C#N)sc(=S)n1-c1ccc(C)cc1,inactive: 101%
11,Nc1nc(-c2cccc(NS(=O)(=O)c3ccccc3)c2)cs1,inactive: 99.3%
12,C=CCN(CC=C)CCCOc1ccccc1C(=O)OC,inconclusive: 103%
13,CCCCCCc1cc2cc(-c3nnc(-c4ccccc4OC)o3)c(=O)oc2cc1O,inactive: 92.7%
14,S=c1[nH]c2cc3ccccc3cc2[nH]1,inconclusive: 95.6% and inconclusive: 119%
15,Cc1ccc(-n2nc(C)c(=O)c(-c3ccccc3)c2NC(=O)C(C)C)cc1,inconclusive: 95.7%
16,COc1ccc(-c2coc3cc(OC(=O)N4CCOCC4)ccc3c2=O)cc1,inconclusive: 90.4%
17,COc1ccc(CC(=O)O/N=C(\N)c2ccc(C)cc2)cc1,inconclusive: 56.3%
18,Fc1ccc(-c2nnn3c2nc(NCc2ccccc2)c2ccccc23)cc1,inconclusive: 94.8%
19,O=C(CN(C(=O)CCC(=O)Nc1nccs1)C1CCCC1)NCc1ccc2c(c1)OCO2,inconclusive: 86.8%
20,CCOc1cc2c3c(c1)C1(Nc4ccccc4S1)C(=O)N3C(C)(C)CC2C (stereo not given),inactive: 95.3%
21,O=S(=O)(c1ccc(F)cc1)N1CCN(c2ccccn2)CC1,inactive: 98.6%
22,Cc1cc(Cl)ccc1N(CC(=O)NCc1ccc2c(c1)OCO2)S(C)(=O)=O,inactive: 99%
23,O=S(=O)(c1ccc(F)cc1)N1CCN(c2ccc(-c3ccccc3)nn2)CC1,inactive: 98%

row,SMILES,binding response (% of control)
1,CC1(C)CC(NC(=O)c2coc(=O)c(Br)c2)CC(C)(C)N1,inactive: 88.9%
2,Cc1onc(-c2ccccc2)c1C(=O)N=C(N)c1ccc(Cl)cc1,inconclusive: 65.5%
3,Cc1cc2c(nc1C)CCCN2C[C@@H](C)O/N=C1/[C@H]2CCn3c(=O)n(-c4ccccc4)c(=O)n3[C@H]2[C@H](O)[C@@H]2O[C@H]12,inactive: 104%
4,O=C(NCCN1CCOCC1)c1cc(S(=O)(=O)Nc2ccccc2F)c(Cl)cc1Cl,inconclusive: 99.9%
5,CCCCOc1ccc(/C(O)=C2/C(=O)C(=O)N(CCCOC)C2c2ccncc2)cc1 (stereo not given),inactive: 105%
6,COC(CSc1ncnc2c1oc1nc3c(cc12)COC(C)(C)C3)OC,inconclusive: 93.2%
7,CCc1ccc(NC(=O)C(=O)NCCOc2ccccc2Cl)cc1,inactive: 99.4%
8,CCCCn1c(-c2csc(C(C)C)c2)n[nH]c1=S,inactive: 100%
9,Oc1cccc(/C=N/N2CCN(c3ccccn3)CC2)c1,inconclusive: 476%
10,C/C(=N/NC(=O)CNC(=O)c1ccncc1)c1ccco1,inconclusive: 229%
11,O=C(COc1cccnc1[N+](=O)[O-])c1ccc(Cl)s1,inconclusive: 414%
12,Cc1ccc(CNC(=O)C(C(=O)NCc2ccc(C)o2)c2ncc(C(F)(F)F)cc2Cl)o1,inactive: 99.5%
13,CS(=O)(=O)N1CCC(C(=O)NCc2ccc(F)cc2)CC1,inconclusive: 98.5%
14,Cc1nc(NC(=S)NC(=O)c2ccccc2)sc1C,inconclusive: -57.6%
15,C/C(=N\Nc1cccc(Cl)c1)C1(C)N(O)C(C)(C)C(c2ccco2)=[N+]1[O-] (stereo not given),inconclusive: -172%
16,COc1cccc(CN2CCN(Cc3ccc(O)cc3)CC2CCO)c1 (stereo not given),inactive: 99.9%
17,Cc1ccc(-c2csc(C3=C(O)CN(NC(=O)c4ccco4)C3=N)n2)cc1,inconclusive: 2.39%
18,C/C(=N\OC(=O)Nc1ccccc1)c1cnn(-c2cc(C(F)(F)F)cc(C)n2)c1C,inconclusive: 438%
19,CCc1nc2cc(Cl)c(Cl)cc2nc1CC,inconclusive: 121%
20,CNC(=O)c1nc(C)n(-c2ccc(Cl)cc2Cl)n1,inconclusive: 101%
21,CC(=O)Nc1ccc(NC(=O)C(C)OC(=O)/C=C/c2cnc3ccccc3n2)cc1 (stereo not given),inconclusive: 117%
22,Cc1ccccc1SCCNC(=O)CCc1ccccc1,inconclusive: 100%
